# Assay results

From PubChem BioAssay record AID504749 (NCATS, 2011).

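A panel of P. falciparum strains inside erythrocytes is exposed to compounds for three days, then a DNA-binding dye reports the amount of parasite DNA.
Each compound was titrated across a series from about 0.000037 to 29 µM.
The number is the fitted AC50, the concentration giving a half-maximal change in signal; a lower value means higher potency, whether the curve shows a decrease or an increase.
Calls follow the curve class and fit quality: every row here is inconclusive, covering signal-raising curves and weak, poorly fitted, partial or highest-dose-only inhibition curves.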

Values are in nM.
All entries here are filed as inconclusive.
These entries are mostly ones the record files as inconclusive; other results of the assay are not listed here.
A potency from a partial, single-point or poor curve is only a rough figure.

structure | setting | fitted potency (nM) | curve as filed
CC/C(=C(/CC)c1ccc(O)cc1)c1ccc(O)cc1 | ATS189 | 10000 | inhibitor, single point
CC/C(=C(/CC)c1ccc(O)cc1)c1ccc(O)cc1 | CP191 | 10000 | inhibitor, single point
CC/C(=C(/CC)c1ccc(O)cc1)c1ccc(O)cc1 | TAB165 | 8912 | inhibitor, single point
CC/C(=C(/CC)c1ccc(O)cc1)c1ccc(O)cc1 | PC15 | 4467 | inhibitor, partial curve
CC/C(=C(/CC)c1ccc(O)cc1)c1ccc(O)cc1 | CP256 | 10000 | inhibitor, single point
CN(C)C(=S)SC(=S)N(C)C | CP329 | 15101 | inhibitor, single point
CN(C)C(=S)SC(=S)N(C)C | CP238 | 10000 | inhibitor, single point
CN(C)C(=S)SC(=S)N(C)C | CP291 | 19011 | inhibitor, single point
CN(C)C(=S)SC(=S)N(C)C | CP194 | 15101 | inhibitor, single point
CN(C)C(=S)SC(=S)N(C)C | JCK | 14125 | inhibitor, single point
CN(C)C(=S)SC(=S)N(C)C | CP217 | 10000 | inhibitor, single point
CN(C)C(=S)SC(=S)N(C)C | PC49 | 11220 | inhibitor, single point
CN(C)C(=S)SC(=S)N(C)C | ATS189 | 12589 | inhibitor, single point
CN(C)C(=S)SC(=S)N(C)C | CP247 | 10000 | inhibitor, single point
CN(C)C(=S)SC(=S)N(C)C | CP191 | 10000 | inhibitor, single point
CN(C)C(=S)SC(=S)N(C)C | SC27B | 12589 | inhibitor, single point
CN(C)C(=S)SC(=S)N(C)C | PC26 | 15101 | inhibitor, single point
CN(C)C(=S)SC(=S)N(C)C | C2A | 11220 | inhibitor, single point
CN(C)C(=S)SC(=S)N(C)C | CP265 | 10000 | inhibitor, single point
CN(C)C(=S)SC(=S)N(C)C | CP211 | 16944 | inhibitor, single point
CN(C)C(=S)SC(=S)N(C)C | DIV17 | 19011 | inhibitor, single point
CN(C)C(=S)SC(=S)N(C)C | CP315 | 21331 | inhibitor, single point
CN(C)C(=S)SC(=S)N(C)C | AA1029 | 10000 | inhibitor, single point
CN(C)C(=S)SC(=S)N(C)C | FAB9 | 17782 | inhibitor, single point
CN(C)C(=S)SC(=S)N(C)C | CP215 | 7569 | inhibitor, partial curve, poor fit
CN(C)C(=S)SC(=S)N(C)C | TAB109 | 10000 | inhibitor, single point
CN(C)C(=S)SC(=S)N(C)C | ATS95 | 11220 | inhibitor, single point
CN(C)C(=S)SC(=S)N(C)C | CP252 | 10000 | inhibitor, single point

The last 2 entries again:

structure	setting	fitted potency (nM)	curve as filed
CN(C)C(=S)SC(=S)N(C)C	ATS95	11220	inhibitor, single point
CN(C)C(=S)SC(=S)N(C)C	CP252	10000	inhibitor, single point